Laboratory results taken from the supplement of paper PMC10849652.
The list shows a part of the results.

Amino acid sequences for entries named in this document (tags omitted). A change or cut given only in a name is not applied to a line headed by its entry.
UniProt P40938, whole entry, looked up: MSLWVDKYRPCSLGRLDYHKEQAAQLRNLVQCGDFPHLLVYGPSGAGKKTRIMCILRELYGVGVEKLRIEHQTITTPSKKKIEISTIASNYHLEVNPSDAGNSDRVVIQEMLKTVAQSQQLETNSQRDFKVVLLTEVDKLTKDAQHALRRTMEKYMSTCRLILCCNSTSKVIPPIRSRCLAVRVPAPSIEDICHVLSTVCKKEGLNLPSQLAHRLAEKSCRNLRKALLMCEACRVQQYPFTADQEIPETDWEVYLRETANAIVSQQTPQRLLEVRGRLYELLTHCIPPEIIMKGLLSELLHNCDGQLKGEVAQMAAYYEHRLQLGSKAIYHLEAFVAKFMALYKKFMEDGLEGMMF
UniProt Q04206, whole entry, looked up: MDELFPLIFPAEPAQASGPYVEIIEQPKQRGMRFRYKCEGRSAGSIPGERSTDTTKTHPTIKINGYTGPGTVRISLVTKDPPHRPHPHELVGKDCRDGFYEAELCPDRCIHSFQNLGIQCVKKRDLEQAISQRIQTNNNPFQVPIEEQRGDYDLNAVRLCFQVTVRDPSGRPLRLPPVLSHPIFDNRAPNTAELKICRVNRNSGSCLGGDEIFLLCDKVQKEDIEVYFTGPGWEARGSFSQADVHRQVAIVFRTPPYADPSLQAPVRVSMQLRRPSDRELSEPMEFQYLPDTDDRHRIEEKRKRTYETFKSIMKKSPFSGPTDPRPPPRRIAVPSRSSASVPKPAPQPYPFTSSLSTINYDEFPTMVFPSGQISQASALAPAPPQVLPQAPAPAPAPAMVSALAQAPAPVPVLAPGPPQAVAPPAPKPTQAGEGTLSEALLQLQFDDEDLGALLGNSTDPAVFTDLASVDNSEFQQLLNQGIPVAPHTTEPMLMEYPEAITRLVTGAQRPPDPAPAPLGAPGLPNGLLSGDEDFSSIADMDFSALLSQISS
UniProt Q86VR2, whole entry, looked up: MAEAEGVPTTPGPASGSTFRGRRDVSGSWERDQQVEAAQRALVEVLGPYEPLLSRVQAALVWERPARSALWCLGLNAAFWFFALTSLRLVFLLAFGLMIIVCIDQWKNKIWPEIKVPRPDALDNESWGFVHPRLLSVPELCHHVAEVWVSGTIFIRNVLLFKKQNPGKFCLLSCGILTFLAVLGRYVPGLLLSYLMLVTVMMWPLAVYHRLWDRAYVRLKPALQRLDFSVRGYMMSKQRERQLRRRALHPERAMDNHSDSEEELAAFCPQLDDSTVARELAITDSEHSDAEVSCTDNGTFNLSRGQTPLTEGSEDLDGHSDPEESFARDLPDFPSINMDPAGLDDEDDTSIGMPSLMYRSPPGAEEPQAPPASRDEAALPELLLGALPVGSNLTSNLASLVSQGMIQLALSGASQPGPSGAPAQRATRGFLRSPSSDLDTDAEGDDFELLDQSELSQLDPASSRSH
UniProt Q9NPQ8: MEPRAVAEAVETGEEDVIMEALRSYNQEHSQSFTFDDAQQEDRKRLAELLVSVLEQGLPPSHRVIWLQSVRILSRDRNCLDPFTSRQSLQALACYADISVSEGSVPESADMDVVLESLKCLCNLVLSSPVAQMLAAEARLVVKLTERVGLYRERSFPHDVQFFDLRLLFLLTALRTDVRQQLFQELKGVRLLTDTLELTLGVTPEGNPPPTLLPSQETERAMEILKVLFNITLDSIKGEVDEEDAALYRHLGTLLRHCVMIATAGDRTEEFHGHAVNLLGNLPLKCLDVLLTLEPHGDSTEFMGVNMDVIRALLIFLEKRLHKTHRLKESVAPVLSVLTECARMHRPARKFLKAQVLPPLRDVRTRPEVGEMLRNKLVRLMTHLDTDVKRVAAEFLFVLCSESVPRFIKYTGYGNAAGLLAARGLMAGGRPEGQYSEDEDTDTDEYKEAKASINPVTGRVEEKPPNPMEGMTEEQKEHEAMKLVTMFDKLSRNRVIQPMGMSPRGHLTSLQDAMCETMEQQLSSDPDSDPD
UniProt Q9H6H4: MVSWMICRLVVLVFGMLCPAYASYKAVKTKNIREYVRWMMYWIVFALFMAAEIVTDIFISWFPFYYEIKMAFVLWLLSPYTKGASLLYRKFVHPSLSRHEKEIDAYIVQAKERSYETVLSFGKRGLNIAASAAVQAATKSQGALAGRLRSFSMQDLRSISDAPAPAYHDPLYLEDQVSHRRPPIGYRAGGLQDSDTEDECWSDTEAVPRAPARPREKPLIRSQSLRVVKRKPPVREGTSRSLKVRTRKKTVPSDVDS
UniProt Q99496: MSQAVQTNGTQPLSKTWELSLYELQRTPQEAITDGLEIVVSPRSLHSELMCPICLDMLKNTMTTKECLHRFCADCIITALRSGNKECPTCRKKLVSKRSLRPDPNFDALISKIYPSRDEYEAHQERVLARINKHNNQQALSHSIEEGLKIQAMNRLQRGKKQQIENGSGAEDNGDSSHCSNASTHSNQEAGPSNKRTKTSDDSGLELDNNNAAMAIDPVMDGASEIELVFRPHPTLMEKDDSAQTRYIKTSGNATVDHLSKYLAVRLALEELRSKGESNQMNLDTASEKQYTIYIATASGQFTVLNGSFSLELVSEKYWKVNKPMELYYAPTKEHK
UniProt P46063: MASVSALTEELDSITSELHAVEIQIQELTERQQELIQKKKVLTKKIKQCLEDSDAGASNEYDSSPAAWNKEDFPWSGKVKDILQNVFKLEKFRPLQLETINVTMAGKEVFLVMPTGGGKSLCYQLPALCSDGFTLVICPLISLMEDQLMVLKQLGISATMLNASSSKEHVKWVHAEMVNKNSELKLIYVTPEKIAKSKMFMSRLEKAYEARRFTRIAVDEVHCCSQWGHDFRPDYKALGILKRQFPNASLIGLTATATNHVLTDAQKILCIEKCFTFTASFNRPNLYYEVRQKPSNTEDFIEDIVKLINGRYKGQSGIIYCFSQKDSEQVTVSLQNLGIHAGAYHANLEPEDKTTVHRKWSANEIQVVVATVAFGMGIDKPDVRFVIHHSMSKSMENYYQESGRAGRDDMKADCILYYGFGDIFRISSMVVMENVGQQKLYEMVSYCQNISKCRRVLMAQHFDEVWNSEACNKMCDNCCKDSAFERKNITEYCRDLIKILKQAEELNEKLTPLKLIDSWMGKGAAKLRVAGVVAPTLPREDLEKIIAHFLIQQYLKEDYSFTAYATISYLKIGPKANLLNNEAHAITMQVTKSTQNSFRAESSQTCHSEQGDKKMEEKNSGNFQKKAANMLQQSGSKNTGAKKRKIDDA
UniProt Q13546: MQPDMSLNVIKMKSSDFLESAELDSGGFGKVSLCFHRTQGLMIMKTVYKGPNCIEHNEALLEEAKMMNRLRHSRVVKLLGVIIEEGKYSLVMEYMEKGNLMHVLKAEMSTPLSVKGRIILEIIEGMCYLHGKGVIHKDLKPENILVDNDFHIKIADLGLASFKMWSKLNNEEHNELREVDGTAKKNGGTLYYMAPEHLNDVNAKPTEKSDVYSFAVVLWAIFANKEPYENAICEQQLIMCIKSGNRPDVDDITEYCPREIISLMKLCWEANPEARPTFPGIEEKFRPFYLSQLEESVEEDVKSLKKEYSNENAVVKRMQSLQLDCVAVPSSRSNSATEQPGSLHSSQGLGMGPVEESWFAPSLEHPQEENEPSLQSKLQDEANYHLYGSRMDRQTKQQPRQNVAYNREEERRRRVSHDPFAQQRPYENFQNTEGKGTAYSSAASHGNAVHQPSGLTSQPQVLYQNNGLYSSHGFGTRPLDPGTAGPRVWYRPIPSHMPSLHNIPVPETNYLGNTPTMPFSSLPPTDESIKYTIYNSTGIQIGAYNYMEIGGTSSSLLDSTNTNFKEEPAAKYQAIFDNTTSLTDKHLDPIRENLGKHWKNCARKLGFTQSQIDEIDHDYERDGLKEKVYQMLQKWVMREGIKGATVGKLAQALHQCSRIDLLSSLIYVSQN
UniProt Q2KHR2: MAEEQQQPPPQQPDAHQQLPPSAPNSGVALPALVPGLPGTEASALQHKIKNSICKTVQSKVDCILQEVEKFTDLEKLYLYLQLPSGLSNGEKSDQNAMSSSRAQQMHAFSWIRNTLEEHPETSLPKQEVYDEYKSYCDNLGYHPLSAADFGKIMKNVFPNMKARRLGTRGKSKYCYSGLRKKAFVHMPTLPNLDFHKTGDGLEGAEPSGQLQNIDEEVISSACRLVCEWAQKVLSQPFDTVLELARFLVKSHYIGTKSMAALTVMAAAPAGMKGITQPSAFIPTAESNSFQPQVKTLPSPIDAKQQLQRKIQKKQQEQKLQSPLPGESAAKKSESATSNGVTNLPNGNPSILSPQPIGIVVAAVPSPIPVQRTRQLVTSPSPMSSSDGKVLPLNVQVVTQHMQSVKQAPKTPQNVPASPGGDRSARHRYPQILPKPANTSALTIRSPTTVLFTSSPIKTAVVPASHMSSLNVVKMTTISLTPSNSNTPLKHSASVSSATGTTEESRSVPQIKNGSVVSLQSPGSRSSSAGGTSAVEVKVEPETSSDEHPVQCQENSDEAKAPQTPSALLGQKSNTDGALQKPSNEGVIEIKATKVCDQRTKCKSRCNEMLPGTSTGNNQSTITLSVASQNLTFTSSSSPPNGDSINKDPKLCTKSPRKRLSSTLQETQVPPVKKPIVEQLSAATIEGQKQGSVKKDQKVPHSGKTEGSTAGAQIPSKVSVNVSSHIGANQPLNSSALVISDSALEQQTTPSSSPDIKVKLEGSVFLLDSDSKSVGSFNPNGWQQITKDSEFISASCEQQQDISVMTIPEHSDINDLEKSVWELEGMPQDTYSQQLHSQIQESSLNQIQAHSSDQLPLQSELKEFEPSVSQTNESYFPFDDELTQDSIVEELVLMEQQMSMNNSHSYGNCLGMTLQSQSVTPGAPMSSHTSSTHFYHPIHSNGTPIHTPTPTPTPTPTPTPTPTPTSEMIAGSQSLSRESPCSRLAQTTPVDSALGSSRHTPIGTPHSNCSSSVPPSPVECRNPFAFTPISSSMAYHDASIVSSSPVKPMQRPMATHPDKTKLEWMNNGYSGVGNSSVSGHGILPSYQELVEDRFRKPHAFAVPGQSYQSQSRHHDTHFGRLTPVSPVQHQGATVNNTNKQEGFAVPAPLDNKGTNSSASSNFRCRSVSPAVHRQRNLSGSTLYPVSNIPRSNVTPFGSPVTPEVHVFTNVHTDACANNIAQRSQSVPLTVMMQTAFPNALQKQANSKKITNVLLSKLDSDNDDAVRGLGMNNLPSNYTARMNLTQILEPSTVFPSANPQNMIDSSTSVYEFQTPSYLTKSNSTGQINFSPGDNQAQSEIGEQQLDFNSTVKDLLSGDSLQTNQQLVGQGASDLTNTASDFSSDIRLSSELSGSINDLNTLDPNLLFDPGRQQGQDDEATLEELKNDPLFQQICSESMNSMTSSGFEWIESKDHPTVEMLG
UniProt Q9UKL0, whole entry, looked up: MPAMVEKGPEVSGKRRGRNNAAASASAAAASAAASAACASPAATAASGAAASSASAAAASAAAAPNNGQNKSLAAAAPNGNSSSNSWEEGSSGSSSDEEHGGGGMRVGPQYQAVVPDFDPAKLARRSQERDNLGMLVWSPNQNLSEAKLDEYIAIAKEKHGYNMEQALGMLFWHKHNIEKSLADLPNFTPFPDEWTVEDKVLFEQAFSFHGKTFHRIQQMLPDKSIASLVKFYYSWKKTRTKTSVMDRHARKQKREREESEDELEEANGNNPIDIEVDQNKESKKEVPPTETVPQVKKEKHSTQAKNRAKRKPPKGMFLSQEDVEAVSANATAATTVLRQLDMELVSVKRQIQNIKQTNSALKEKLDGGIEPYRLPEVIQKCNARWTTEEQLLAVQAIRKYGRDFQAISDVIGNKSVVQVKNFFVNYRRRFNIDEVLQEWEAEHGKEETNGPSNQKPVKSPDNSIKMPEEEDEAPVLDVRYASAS
UniProt Q96DM3: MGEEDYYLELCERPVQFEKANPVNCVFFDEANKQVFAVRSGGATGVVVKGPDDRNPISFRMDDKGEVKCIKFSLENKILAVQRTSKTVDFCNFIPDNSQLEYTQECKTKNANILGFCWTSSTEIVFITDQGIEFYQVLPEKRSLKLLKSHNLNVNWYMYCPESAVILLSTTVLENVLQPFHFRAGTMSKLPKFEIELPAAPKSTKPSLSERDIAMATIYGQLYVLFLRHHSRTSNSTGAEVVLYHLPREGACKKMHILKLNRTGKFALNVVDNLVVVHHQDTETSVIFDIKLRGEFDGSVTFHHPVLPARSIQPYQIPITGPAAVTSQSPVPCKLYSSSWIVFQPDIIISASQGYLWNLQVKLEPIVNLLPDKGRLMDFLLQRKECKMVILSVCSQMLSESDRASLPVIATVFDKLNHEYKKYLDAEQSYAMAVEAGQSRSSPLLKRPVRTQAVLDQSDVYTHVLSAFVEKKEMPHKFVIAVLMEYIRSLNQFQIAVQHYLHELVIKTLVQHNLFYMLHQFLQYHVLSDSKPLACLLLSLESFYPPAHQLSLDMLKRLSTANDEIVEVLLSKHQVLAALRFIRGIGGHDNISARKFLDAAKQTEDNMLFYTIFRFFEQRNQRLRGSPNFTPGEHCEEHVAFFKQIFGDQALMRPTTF

Experiments:
Test in all cases: log2 fold change, soluble protein after heating vs DMSO (PISA); higher = thermal stabilisation; K562 cells, 10 uM, 30 min; active = over 0.2 and 3.5 SD of the protein, either way, in both replicates (recomputed)
[1] = compound: CN1CCN(CCOc2cc(OC3CCOCC3)c3c(Nc4c(Cl)ccc5c4OCO5)ncnc3c2)CC1 [saracatinib]
In short: (§1)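 Quantification of soluble protein used TMTpro 16plex LC-MS/MS, with channel sums equalised. Samples were the supernatant after 21,000xg for 90 min of pooled aliquots from K562 cells (2×10^6 cells/mL) treated with 10 μM compound for 30 min, heated for 3 min over 48°C-58°C, and extracted in PBS with 0.5% NP-40 at 4°C. Values, from duplicates, describe thermal stability against control samples on a log2 fold-change scale.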

[2] = compound: CN1CCN(c2nc(C3=C(c4c[nH]c5ccccc45)C(=O)NC3=O)c3ccccc3n2)CC1 [sotrastaurin]
In short: as §1

[3] = compound: CN1CCc2c(c3ccccc3n2Cc2ccc(C(=O)NO)cc2)C1 [Tubastatin A]
In short: as §1

[4] = compound: CNC(=O)C1=CC=CC=C1NC2=NC(=NC=C2Cl)NC3=C(C=C(C=C3)N4CCOCC4)OC
In short: as §1

[5] = compound: CNC(=O)c1ccc(Nc2ncc(C(F)(F)F)c(NCc3nccnc3N(C)S(C)(=O)=O)n2)cc1 [defactinib]
In short: as §1

[6] = compound: CNCc1ccc(-c2[nH]c3cc(F)cc4c3c2CCNC4=O)cc1 [rucaparib]
In short: as §1

[7] = compound: CNc1nc(-c2ccc3c(N)n[nH]c3c2)cc(N2C[C@@H](C(=O)NC3CCCCC3)CC[C@H]2C)n1
In short: as §1

[8] = compound: COC(=O)N[C@@H](C)CNc1nccc(-c2cn(C(C)C)nc2-c2cc(Cl)cc(NS(C)(=O)=O)c2F)n1 [encorafenib]
In short: as §1

[9] = compound: COC(=O)[C@H](CCSC)NC(=O)C1=C(C=C(C=C1)NC[C@H](CS)N)C2=CC=CC=C2
In short: as §1

[10] = compound: COC1=CC=C(C=C1)CN2C=CC3=C2C=C(C=C3)C(=O)NO
In short: as §1

[11] = compound: CON(C)C(=O)N1N=C(c2cc(F)ccc2F)S[C@@]1(CCCN)c1ccccc1 [filanesib]
In short: as §1

[12] = compound: CO[C@H]1C[C@@H]2CC[C@@H](C)[C@@](O)(O2)C(=O)C(=O)N2CCCC[C@H]2C(=O)O[C@H]([C@H](C)C[C@@H]2CC[C@H](n3cnnn3)[C@H](OC)C2)CC(=O)[C@H](C)/C=C(\C)[C@@H](O)[C@@H](OC)C(=O)[C@H](C)C[C@H](C)/C=C/C=C/C=C/1C [zotarolimus]
In short: as §1

[13] = compound: COc1cc(C(=O)O)ccc1NC(=O)[C@@H]1N[C@@H](CC(C)(C)C)[C@](C#N)(c2ccc(Cl)cc2F)[C@H]1c1cccc(Cl)c1F [idasanutlin]
In short: as §1

[14] = compound: COc1cc(Nc2ncc3c(n2)-c2ccc(Cl)cc2C(c2c(F)cccc2OC)=NC3)ccc1C(=O)O [alisertib]
In short: as §1

[15] = compound: COc1cc2nc(-c3cc(F)ccc3O)nc(N[C@@H]3CNC[C@H]3C(C)(C)O)c2cc1OC
In short: as §1

[16] = compound: COc1cc2ncnc(Nc3ccc(F)c(Cl)c3)c2cc1OCCCN1CCOCC1 [gefitinib]
In short: as §1

[17] = compound: COc1cccc2cc(-c3nc([C@H]4CC[C@H](C(=O)O)CC4)n4ncnc(N)c34)[nH]c12
In short: as §1

[18] = compound: CS(=O)(=O)CCNCc1ccc(-c2ccc3ncnc(Nc4ccc(OCc5cccc(F)c5)c(Cl)c4)c3c2)o1 [lapatinib]
In short: as §1

[19] = compound: CS(=O)(=O)N1CCN(Cc2cc3nc(-c4cccc5[nH]ncc45)nc(N4CCOCC4)c3s2)CC1 [pictilisib]
In short: as §1

[20] = compound: CN1CC[C@H](c2c(O)cc(O)c3c(=O)cc(-c4ccccc4Cl)oc23)[C@H](O)C1 [alvocidib]
In short: as §1

Row | Target | log2 fold change [1] | log2 fold change [2] | log2 fold change [3] | log2 fold change [4] | log2 fold change [5] | log2 fold change [6] | log2 fold change [7] | log2 fold change [8] | log2 fold change [9] | log2 fold change [10] | log2 fold change [11] | log2 fold change [12] | log2 fold change [13] | log2 fold change [14] | log2 fold change [15] | log2 fold change [16] | log2 fold change [17] | log2 fold change [18] | log2 fold change [19] | log2 fold change [20]
1 | RFC3 (UniProt P40938) | inactive: -0.021 | inactive: 0.032 | inactive: 0.023 | inactive: 0.031 | inactive: -0.052 | inactive: -0.011 | inactive: 0.007 | inactive: 0.062 | inactive: -0.058 | inactive: 0.125 | inactive: -0.046 | inactive: -0.026 | inactive: -0.088 | inactive: -0.021 | inactive: -0.042 | inactive: 0.008 | inactive: 0.024 | inactive: 0.037 | inactive: 0.035 | –
2 | RELA (UniProt Q04206) | inactive: 0.027 | inactive: -0.036 | inactive: -0.017 | inactive: 0.032 | inactive: -0.077 | inactive: -0.026 | inactive: -0.029 | inactive: 0.044 | inactive: -0.011 | inactive: 0.025 | inactive: -0.002 | inactive: 0.024 | inactive: -0.039 | inactive: -0.028 | inactive: -0.031 | inactive: 0.023 | inactive: 0.005 | inactive: 0.012 | inactive: -0.007 | –
3 | RBP4 (UniProt P02753) | inactive: 0.008 | – | inactive: -0.089 | inactive: -0.138 | inactive: -0.057 | inactive: 0.082 | inactive: 0.236 | inactive: -0.136 | inactive: 0.173 | inactive: 0.042 | – | inactive: -0.3 | inactive: 0.224 | inactive: -0.035 | – | – | inactive: 0.465 | – | inactive: -0.433 | inactive: 0.137
4 | RCN3 (UniProt Q96D15) | inactive: 0.033 | inactive: 0.107 | inactive: 0.153 | inactive: -0.076 | inactive: 0.096 | inactive: 0.038 | inactive: -0.309 | inactive: 0.054 | inactive: 0.087 | inactive: -0.065 | inactive: 0.054 | inactive: -0.068 | inactive: -0.122 | inactive: 0 | inactive: 0.043 | inactive: 0 | inactive: 0.132 | inactive: -0.025 | inactive: 0.087 | –
5 | RDH11 (UniProt Q8TC12) | inactive: -0.121 | inactive: -0.019 | inactive: 0.003 | inactive: 0.136 | inactive: 0.001 | inactive: 0.113 | inactive: 0.019 | inactive: 0.094 | inactive: -0.086 | inactive: 0.087 | inactive: -0.046 | inactive: 0.093 | inactive: 0.032 | inactive: -0.01 | inactive: -0.333 | inactive: 0.071 | inactive: 0 | inactive: 0.03 | inactive: 0.241 | –
6 | RETREG3 (UniProt Q86VR2) | inactive: 0.164 | inactive: 0.035 | inactive: 0.022 | inactive: 0.011 | inactive: -0.015 | inactive: 0.004 | inactive: -0.011 | inactive: -0.018 | inactive: 0.032 | inactive: -0.038 | inactive: -0.136 | inactive: -0.053 | inactive: -0.008 | inactive: 0.029 | inactive: -0.141 | inactive: 0.035 | inactive: 0.106 | inactive: 0.037 | inactive: 0.102 | –
7 | RIC8A isoform 3 (UniProt Q9NPQ8) | inactive: 0.008 | inactive: -0.223 | inactive: 0.108 | inactive: -0.096 | inactive: -0.175 | inactive: 0.198 | inactive: -0.087 | inactive: 0.287 | inactive: -0.12 | inactive: -0.007 | inactive: -0.046 | inactive: -0.058 | inactive: -0.032 | inactive: 0.159 | inactive: -0.095 | inactive: 0.043 | inactive: 0.009 | inactive: 0.001 | inactive: -0.002 | –
8 | REEP4 (UniProt Q9H6H4) | inactive: 0.047 | inactive: -0.068 | inactive: 0.018 | inactive: -0.122 | inactive: 0.008 | inactive: 0.086 | inactive: -0.014 | inactive: -0.013 | inactive: -0.01 | inactive: -0.039 | inactive: -0.072 | inactive: -0.034 | inactive: 0.033 | inactive: -0.07 | active: -0.32 | inactive: -0.032 | inactive: -0.031 | inactive: 0.121 | inactive: -0.175 | –
9 | RNF2 (UniProt Q99496) | inactive: 0.025 | inactive: -0.105 | inactive: 0.111 | inactive: 0.091 | inactive: -0.029 | inactive: -0.054 | inactive: -0.059 | inactive: 0.003 | inactive: 0.1 | inactive: -0.104 | inactive: 0.023 | inactive: 0 | inactive: -0.01 | inactive: -0.105 | inactive: -0.04 | inactive: 0.106 | inactive: 0.039 | inactive: 0.011 | inactive: 0.099 | –
10 | RIC1 (UniProt Q4ADV7) | inactive: -0.162 | inactive: -0.107 | – | inactive: -0.083 | inactive: 0.032 | inactive: 0.05 | inactive: -0.264 | inactive: -0.11 | inactive: 0.168 | inactive: 0.172 | inactive: -0.147 | – | inactive: 0.009 | inactive: 0.06 | inactive: -0.019 | inactive: -0.061 | inactive: 0.243 | inactive: -0.015 | inactive: 0.104 | –
11 | RECQL (UniProt P46063) | inactive: 0.053 | inactive: -0.012 | inactive: 0.021 | inactive: 0.061 | inactive: -0.071 | inactive: -0.002 | inactive: -0.013 | inactive: 0.026 | inactive: -0.026 | inactive: 0.022 | inactive: -0.091 | inactive: 0.035 | inactive: -0.056 | inactive: -0.061 | inactive: -0.038 | inactive: -0.004 | inactive: 0.031 | inactive: 0.043 | inactive: 0.024 | –
12 | RIPK1 (UniProt Q13546) | inactive: -0.197 | inactive: -0.208 | inactive: 0.017 | inactive: 0.191 | inactive: 0.028 | inactive: 0.161 | inactive: 0.212 | inactive: 0.073 | inactive: -0.097 | inactive: 0 | inactive: 0.049 | inactive: 0.098 | inactive: 0.022 | inactive: -0.052 | inactive: 0.032 | inactive: 0.043 | inactive: -0.214 | inactive: 0.055 | inactive: 0.027 | –
13 | RFX7 (UniProt Q2KHR2) | inactive: -0.005 | inactive: -0.112 | – | – | – | – | inactive: -0.048 | – | – | – | inactive: -0.001 | – | – | – | – | – | – | – | – | –
14 | RNF187 (UniProt Q5TA31) | inactive: -0.069 | inactive: 0.001 | inactive: 0.196 | inactive: -0.084 | inactive: -0.047 | inactive: -0.139 | inactive: 0.05 | inactive: -0.042 | inactive: -0.05 | inactive: 0.028 | inactive: 0.003 | inactive: -0.006 | inactive: -0.032 | inactive: -0.104 | inactive: 0.047 | inactive: -0.012 | inactive: -0.053 | inactive: -0.07 | inactive: -0.037 | –
15 | RDH13 (UniProt Q8NBN7) | inactive: -0.084 | inactive: 0.027 | inactive: -0.063 | inactive: -0.062 | inactive: -0.043 | inactive: 0.029 | inactive: 0.016 | inactive: 0.014 | inactive: -0.016 | inactive: 0.056 | inactive: -0.135 | inactive: 0.072 | inactive: -0.019 | inactive: -0.005 | inactive: -0.064 | inactive: 0.018 | inactive: 0.084 | inactive: 0 | inactive: 0.042 | –
16 | RCOR1 (UniProt Q9UKL0) | inactive: -0.011 | inactive: -0.047 | inactive: 0.028 | inactive: -0.017 | inactive: -0.119 | inactive: -0.005 | inactive: 0.073 | inactive: 0 | inactive: -0.002 | inactive: -0.039 | inactive: 0.002 | inactive: -0.044 | inactive: 0 | inactive: 0.013 | inactive: 0.003 | inactive: -0.002 | inactive: 0.015 | inactive: 0.019 | inactive: 0.005 | –
17 | RMC1 (UniProt Q96DM3) | inactive: -0.002 | inactive: -0.01 | inactive: 0.007 | inactive: 0.014 | inactive: -0.041 | inactive: 0.029 | inactive: 0.014 | inactive: -0.013 | inactive: -0.018 | inactive: -0.002 | inactive: -0.058 | inactive: -0.015 | inactive: -0.047 | inactive: -0.059 | inactive: -0.006 | inactive: 0.045 | inactive: 0.044 | inactive: -0.029 | inactive: -0.105 | –

A few values from the entries so far:
Value of RNF187 (UniProt Q5TA31) under log2 fold change [4]: inactive: -0.084
Value of RFX7 (UniProt Q2KHR2) under log2 fold change [1]: inactive: -0.005
